Paper doi:10.1101/2021.06.16.448340 (bioRxiv, 2021)
These are yes or no findings as the source states them, for the method shown. In cells and extracts the contact can be indirect. These calls come from enrichment with a bait or labelling near it, and not all partners need be listed. Sequences can lack the tags named with a protein.

T1: CtaD with Strep-tag, subunit I homologue of complex IV (Corynebacterium glutamicum) (UniProt Q79VD7)
T1 sequence: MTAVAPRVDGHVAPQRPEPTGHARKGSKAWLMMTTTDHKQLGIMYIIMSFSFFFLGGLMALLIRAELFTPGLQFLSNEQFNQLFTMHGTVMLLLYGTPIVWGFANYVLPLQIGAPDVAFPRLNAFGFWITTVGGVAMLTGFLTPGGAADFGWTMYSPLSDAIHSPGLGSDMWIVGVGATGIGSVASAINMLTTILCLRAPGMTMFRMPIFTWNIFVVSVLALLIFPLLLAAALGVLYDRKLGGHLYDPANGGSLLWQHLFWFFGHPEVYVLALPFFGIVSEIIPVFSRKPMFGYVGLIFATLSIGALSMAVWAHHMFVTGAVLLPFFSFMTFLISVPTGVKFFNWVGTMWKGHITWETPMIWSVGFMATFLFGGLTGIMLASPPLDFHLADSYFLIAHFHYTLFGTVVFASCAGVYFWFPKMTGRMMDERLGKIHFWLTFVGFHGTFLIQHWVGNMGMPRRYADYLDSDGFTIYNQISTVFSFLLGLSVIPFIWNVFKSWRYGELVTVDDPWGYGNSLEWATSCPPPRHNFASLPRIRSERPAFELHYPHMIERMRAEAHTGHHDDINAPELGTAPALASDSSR


These binders were tested against T1, CtaD with Strep-tag, subunit I homologue of complex IV (Corynebacterium glutamicum) (assay: affinity purification with mass spectrometry).

| Binder | binding |
| --- | --- |
| QcrA, Rieske iron-sulfur (FeS) protein subunit of complex III (protein, UniProt Q79VE8 1-408) MSNNNDKQYTTQELNAMSNEDLARLGTELDDVTIAYRKERFPIANDPAEKRAARAVTFWLVLGIIGGLGFLATYIFWPWEYKAHGDEGLLAYTLYTPMLGITSGLCILSLGFAVVLYVKKFIPEEIAVQRRHDGPSEEVDRRTIVALLNDSWQTSTLGRRKLIMGLAGGGAVLAGLTIIAPMGGMIKNPWNPKEGPMDVQGDGTLWTSGWTLVENDVKVYLGRDTAAIAESHTDATGEHWSTTGVSRLVRMRPEDLAAASMETVFPLPAEMVNDGAEYDPAKDVYEHQMHSVHGPRNAVMLIRLRTADAEKVIEREGQESFHYGDYYAYSKICTHIGCPTSLYEAQTNRILCPCHQSQFDALHYGKPVFGPAARALPQLPITVDEEGYLIAAGNFIEPLGPAFWERKS | binds |
| QcrC, di-heme cyt. cc subunit of complex III (protein, UniProt Q8NNK5 1-283) MAKPSAKKVKNRRKVRRTVAGALALTIGLSGAGILATAITPDAQVATAQRDDQALISEGKDLYDVACITCHGVNLQGVEDRGPSLVGVGEGAVYFQVHSGRMPILRNEAQAERKAPRYTEAQTLAIAAYVAANGGGPGLVYNEDGTLAMEELRGENYDGQITSADVARGGDLFRLNCASCHNFTGRGGALSSGKYAPNLDAANEQEIYQAMLTGPQNMPKFSDRQLSADEKKDIIAFIKSTKETPSPGGYSLGSLGPVAEGLFMWVFGILVLVAAAMWIGSRS | binds |
| CtaC, subunit II homologue of complex IV (protein, UniProt Q8NNK2 29-359) CEVAPPGGVLGDFLRMGWPDGITPEAVAMGNFWSWVWVAAWIIGIIMWGLFLTAIFAWGAKRAEKRGEGEFPKQLQYNVPLELVLTIVPIIIVMVLFFFTVQTQDKVTALDKNPEVTVDVTAYQWNWKFGYSEIDGSLAPGGQDYQGSDPERQAAAEASKKDPSGDNPIHGNSKSDVSYLEFNRIETLGTTDEIPVMVLPVNTPIEFNLASADVAHSFWVPEFLFKRDAYAHPEANKSQRVFQIEEITEEGAFVGRCAEMCGTYHAMMNFELRVVDRDSFAEYISFRDSNPDATNAQALEHIGQAPYATSTSPFVSDRTATRDGENTQSNA | binds |
| CtaE, subunit of complex IV (protein, UniProt Q9AEL8 1-205) MTSAVGNTGMAAPQRVAALNRPNMVSVGTIVFLSQELMFFAGLFAMYFVSRANGLANGSWGEQTDHLNVPYALLITVILVSSSVTCQFGVFAAERGDVYGLRKWFLVTIILGSIFVIGQGYEYITLVGHGLTIQSSVYGSAFFITTGFHALHVIAGVMAFVVVLMRIHKSKFTPAQATAAMVVSYYWHFVDVVWIGLFITIYFIQ | binds |
| P24 (protein, UniProt Q8NNH6 1-181) MVRSLGCKAHFGTRQEVRNSTMAIKLSIDLSDATFAELSAVIGYAHQLGVDADEKLTFEGTVLNIEFDGDLQFDDVFDAFDEAEIELDNPREDGPIYADDLIDEDEDYRAQTKSQINDEVINEIRDGISSFVDGIVNGLGQGRRGGRYGDFGGPRGPRGPRNDGPFGPFGPFGPGYRGPRF | binds |
